# Results as given in patent US5386011A (priority 1990, dated 1995).
# For part of these data: Some peptides are written in HELM: one residue between dots, names in brackets for other building blocks, links after the first $. [ ]: non-standard residue; d: D form. The star is where a group is joined. NMeF = CN[C@@H](Cc1ccccc1)C(=O)O; dCha = N[C@H](CC1CCCCC1)C(=O)O; Boc = CC(C)(C)OC(=O)*
# What was measured:
# [1] = general procedure: Boc solid-phase peptide synthesis; Boc-DArginine(N-guanidino-Tos)-Merrifield resin; settings: for isolated yield / isolated mass: whole synthesis; for cyclisation yield: cyclisation step
# peptide synthesis = settings: late stage modification step
substance,measurement,setting,value
(N-Methyl)Phenylalanyl-Lysyl-Prolyl-{(2R)-2-Amino-3-cyclohexylpropanoyl}-{(2S)-2-Amino-3-cyclohexylpropanoyl}-DArginyl-NH2,step yield,[1]; late stage modification step,64% yield
(N-Methyl)Phenylalanyl-Lysyl-Prolyl-{(2R)-2-Amino-3-cyclohexylpropanoyl}-{(2S)-2-Amino-3-cyclohexylpropanoyl}-DArginyl-NHBenzyl,isolated yield,[1]; scale of the general procedure 0.4-1.0 g resin,26%
(N-Methyl)Phenylalanyl-Lysyl-Prolyl-{(2R)-2-Amino-3-cyclohexylpropanoyl}-{(2S)-2-Amino-3-cyclohexylpropanoyl}-DArginyl-NHNH2,step yield,[1]; late stage modification step,67% yield
(N-Methyl)Phenylalanyl-Lysyl-Prolyl-{(2R)-2-Amino-3-cyclohexylpropanoyl}-{(2S)-2-Amino-3-cyclohexylpropanoyl}-{(R) -Phenylglycinyl}-OH,step yield,[1]; coupling step,41% yield
(N-Methyl)Phenylalanyl-{(2S)-2-Amino-6-(N^G' -phenylguanidinyl)-hexanoyl}-Prolyl-{(2R)-2-Amino-3-cyclohexylpropanoyl}-Phenylalanyl-DArginyl-OH,step yield,[1]; late stage modification step,0.1% yield
(N-Methyl)Phenylalanyl-{(2S)-2-Amino-6-acetamidinylhexanoyl}-Prolyl-{(2R)-2-Amino-3-cyclohexylpropanoyl}-Phenylalanyl-DArginyl-OH,isolated mass,[1]; scale ca 0.25 meq,131 mg
same,isolated yield,[1]; scale ca 0.25 meq,46% yield
(N-Methyl)Phenylalanyl-{(2S)-2-Amino-6-benzamidinylhexanoyl}-Prolyl-{(2R)-2-Amino-3-cyclohexylpropanoyl}-Phenylalanyl-DArginyl-OH,step yield,[1]; late stage modification step,26% yield
"(N-Methyl)Phenylalanyl-{Lysyl(N-epsilon-[N-(1,3-Diaminopropyl) carbonyl])}-Prolyl-{(2R)-2-Amino-3-cyclohexylpropanoyl}-Phenylalanyl-DArginyl-OH",isolated mass,[1]; scale ca 0.25 meq,20 mg
same,isolated yield,[1]; scale ca 0.25 meq,7% yield
Boc-[NMeF]K(Boc)P[dCha]-OH,step yield,peptide synthesis,83% yield
Boc-[NMeF]K(Boc)P[dCha]F-OH,step yield,peptide synthesis,99% yield
H-Phenylalanyl-Lysyl(epsilon-N**)-Prolyl-{(2R)-2-Amino-3-cyclehexylpropanoyl}-{(2S)-2-Amino-3-cyclohexylpropanoyl}-DArginyl-{(2S)-2-Amino-3-cyclohexylpropanoyl}**,cyclisation yield,[1],5%
PEPTIDE1{[MePhe].K.P.[D-Cha].F.[D-Phg]}$$$$V2.0,step yield,[1]; coupling step,38% yield
{(2R/S)-2-Amino-5-phenylpentanoyl}**-Lysyl-Prolyl-{(2R)-2-Amino-3-cyclohexylpropanoyl}-{(2S)-2-Amino-3-cyclohexylpropanoyl}-DArginyl**,cyclisation yield,[1],29%
